Laboratory results: PubChem BioAssay AID504774 (Drosophila RNAi Screening Center, 2011)
The screen tested about 23,000 reagents; below is a random part of those with a known target gene and a result. 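Values are quantile-normalised luminescence on an arbitrary scale; higher means more cells surviving MMS.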 A plus sign joins genes that one reagent is predicted to hit. Reagent sequences are not shown.

Screen: 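Genes required for cells to withstand methyl methanesulphonate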 (primary screen)
System: Drosophila Kc167 cells
Reagent: long dsRNA against Drosophila genes, about 0.25 µg dsRNA per well
Time to read-out: about 6 days: 3 days knock-down, then 3 days with or without MMS
Challenge: methyl methanesulphonate 0.004% (w/v) for 3 days after knock-down
Measurement: 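Viability in wells given MMS, read as ATP luminescence, normalised by quantiles plate by plate and averaged across replicates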
Direction: mean viability with MMS and viability with MMS: higher = more surviving cells after MMS

| target | DRSC id | mean viability with MMS | viability with MMS, replicate 1 | viability with MMS, replicate 2 |
| --- | --- | --- | --- | --- |
| CG15249 | DRSC17978 | 3.63e6 | 4.11e6 | 4.09e6 |
| Osi3 | DRSC12175 | 3.47e6 | 3.92e6 | 3.96e6 |
| Bruce | DRSC16015 | 3.50e6 | 3.94e6 | 4.02e6 |
| CG8539 | DRSC10988 | 3.60e6 | 4.06e6 | 4.10e6 |
| CG8539 | DRSC21798 | 3.36e6 | 3.91e6 | 3.82e6 |
| CG31178 | DRSC14590 | 3.62e6 | 4.29e6 | 3.92e6 |
| uzip | DRSC04722 | 3.55e6 | 4.04e6 | 3.93e6 |
| Act87E | DRSC22578 | 3.61e6 | 4.08e6 | 4.06e6 |
| CG15024 | DRSC08478 | 3.63e6 | 4.14e6 | 4.11e6 |
| CG4213 | DRSC00641 | 3.47e6 | 3.92e6 | 3.94e6 |
| Hsdl2 | DRSC15839 | 3.57e6 | 4.08e6 | 4.03e6 |
| Hug | DRSC16969 | 3.55e6 | 4.03e6 | 4.04e6 |
| sna | DRSC03613 | 3.47e6 | 3.88e6 | 3.99e6 |
| blow | DRSC07586 | 3.51e6 | 4.01e6 | 3.92e6 |
| SLC22A | DRSC11826 | 3.50e6 | 3.89e6 | 4.01e6 |
| SLC22A | DRSC11827 | 3.65e6 | 4.05e6 | 4.19e6 |
| PIG-T | DRSC17774 | 3.45e6 | 3.92e6 | 3.91e6 |
| lncRNA:bxd | DRSC13176 | 3.58e6 | 4.08e6 | 4.03e6 |
| CG3829 | DRSC04423 | 3.60e6 | 4.16e6 | 4.12e6 |
| CG5026 | DRSC10470 | 3.53e6 | 3.99e6 | 4.01e6 |
| CG30062 | DRSC21737 | 3.43e6 | 3.88e6 | 3.96e6 |
| CG11099 | DRSC06034 | 3.55e6 | 4.08e6 | 3.97e6 |
| CG1941 | DRSC06802 | 3.49e6 | 3.91e6 | 4.01e6 |
| c-cup | DRSC00458 | 3.38e6 | 3.80e6 | 3.79e6 |
| CG31510 | DRSC14182 | 3.50e6 | 3.87e6 | 4.04e6 |
| Gsc | DRSC00755 | 3.50e6 | 3.95e6 | 3.97e6 |
| CG17049 (retired record) | DRSC06650 | 3.53e6 | 4.02e6 | 4.06e6 |
| CG9616 | DRSC16518 | 3.40e6 | 3.88e6 | 3.81e6 |
| Yif1 | DRSC15817 | 3.57e6 | 4.10e6 | 4.00e6 |
| Nepl20 | DRSC14878 | 3.57e6 | 4.03e6 | 4.06e6 |
| MTPAP | DRSC18585 | 3.54e6 | 3.99e6 | 4.05e6 |
| Bap55 | DRSC07000 | 3.32e6 | 3.79e6 | 3.78e6 |
| dpr15 | DRSC12891 | 3.52e6 | 4.09e6 | 3.92e6 |
| dpr15 | DRSC14187 | 3.27e6 | 3.75e6 | 3.81e6 |
| dpr15 | DRSC14188 | 3.47e6 | 3.87e6 | 4.04e6 |
| Agpat2 | DRSC03532 | 3.25e6 | 3.72e6 | 3.50e6 |
| CG14650 | DRSC12236 | 3.52e6 | 3.97e6 | 4.01e6 |
| Dh44-R1 | DRSC07172 | 3.54e6 | 3.95e6 | 4.07e6 |
| CG34354 | DRSC13863 | 3.57e6 | 3.99e6 | 4.10e6 |
| CG34354 | DRSC14515 | 2.86e6 | 3.52e6 | 3.53e6 |
| CG34354 | DRSC14558 | 2.83e6 | 3.51e6 | 3.51e6 |
| CG34354 | DRSC15645 | 3.68e6 | 3.94e6 | 4.39e6 |
| CG34354 | DRSC23054 | 3.39e6 | 3.71e6 | 4.00e6 |
| Adsl | DRSC15500 | 3.56e6 | 4.04e6 | 4.03e6 |
| O-fut2 | DRSC18608 | 3.42e6 | 3.86e6 | 3.90e6 |
| CG42580 | DRSC20397 | 3.51e6 | 3.97e6 | 4.01e6 |
| CG10000 | DRSC14170 | 3.69e6 | 4.19e6 | 4.15e6 |
| EbpII | DRSC04637 | 3.65e6 | 4.24e6 | 4.17e6 |
| EbpII | DRSC22484 | 3.56e6 | 3.97e6 | 4.09e6 |
| Jhbp3 | DRSC12247 | 3.44e6 | 3.93e6 | 3.83e6 |
| Atg10 + CG18853 + CG12822 | DRSC20757 | 2.40e6 | 4.02e6 | 3.92e6 |
| Dhrs4 | DRSC09773 | 3.60e6 | 4.11e6 | 4.05e6 |
| CG30195 | DRSC04155 | 3.73e6 | 4.17e6 | 4.26e6 |
| SWIP | DRSC19540 | 3.48e6 | 3.98e6 | 3.90e6 |
| Dbct | DRSC19951 | 3.57e6 | 3.98e6 | 3.90e6 |
| laza | DRSC11661 | 3.66e6 | 4.08e6 | 4.19e6 |
| laza | DRSC23330 | 3.62e6 | 4.17e6 | 4.05e6 |
| Mccc2 | DRSC04987 | 3.28e6 | 3.57e6 | 3.73e6 |
| Sema1a | DRSC03433 | 3.45e6 | 3.89e6 | 3.90e6 |
| CG33640 | DRSC01324 | 3.47e6 | 4.03e6 | 3.84e6 |
| kcc | DRSC04316 | 3.51e6 | 4.00e6 | 4.05e6 |
| kcc | DRSC04516 | 3.48e6 | 4.03e6 | 3.83e6 |
| CR31700 | DRSC03682 | 3.66e6 | 4.11e6 | 4.16e6 |
| CG30178 | DRSC21911 | 3.47e6 | 3.97e6 | 3.93e6 |
| CG13995 | DRSC00907 | 3.60e6 | 4.10e6 | 4.07e6 |
| CG13995 | DRSC02327 | 3.56e6 | 4.02e6 | 4.03e6 |
| CG13995 | DRSC22767 | 3.40e6 | 3.95e6 | 3.86e6 |
| lncRNA:CR31526 | DRSC21520 | 3.68e6 | 4.11e6 | 4.18e6 |

8 entries from above in another layout.
{"target": "CG34354", "DRSC id": "DRSC23054", "mean viability with MMS": 3.39e6, "viability with MMS, replicate 1": 3.71e6, "viability with MMS, replicate 2": 4.00e6}
{"target": "Adsl", "DRSC id": "DRSC15500", "mean viability with MMS": 3.56e6, "viability with MMS, replicate 1": 4.04e6, "viability with MMS, replicate 2": 4.03e6}
{"target": "O-fut2", "DRSC id": "DRSC18608", "mean viability with MMS": 3.42e6, "viability with MMS, replicate 1": 3.86e6, "viability with MMS, replicate 2": 3.90e6}
{"target": "CG42580", "DRSC id": "DRSC20397", "mean viability with MMS": 3.51e6, "viability with MMS, replicate 1": 3.97e6, "viability with MMS, replicate 2": 4.01e6}
{"target": "CG10000", "DRSC id": "DRSC14170", "mean viability with MMS": 3.69e6, "viability with MMS, replicate 1": 4.19e6, "viability with MMS, replicate 2": 4.15e6}
{"target": "EbpII", "DRSC id": "DRSC04637", "mean viability with MMS": 3.65e6, "viability with MMS, replicate 1": 4.24e6, "viability with MMS, replicate 2": 4.17e6}
{"target": "EbpII", "DRSC id": "DRSC22484", "mean viability with MMS": 3.56e6, "viability with MMS, replicate 1": 3.97e6, "viability with MMS, replicate 2": 4.09e6}
{"target": "Jhbp3", "DRSC id": "DRSC12247", "mean viability with MMS": 3.44e6, "viability with MMS, replicate 1": 3.93e6, "viability with MMS, replicate 2": 3.83e6}
